# PubChem BioAssay AID1259254 | NCATS – 2017
# Assay: 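Gene knock-downs that lead to re-replication, shown by excess G2 DNA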 (primary screen)
# Cell system: human HCT116 colorectal cancer cells
# Reagent: single siRNA against human genes
# Time to read-out: 3 days
# Measurement: 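Imaged Hoechst DNA stain sorts each cell into a cycle phase by DNA amount; per plate, G2 fraction set to 0% for non-targeting and 100% for GMNN siRNA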
# Direction: G2 robust z-score and G2 cells, % of GMNN control: higher = more G2 cells, more excess DNA replication; raw share of cells in G2: higher = larger share of cells with G2 DNA content
# Rule for the call: 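An siRNA counts as active if its G2 robust z-score lies at least 5 MADs above the screen median; here such calls match roughly 38% of GMNN control or more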
# Shown is a random part of about 59,000 reagents. About 1,550 of all reagents (2.6%) were called active. 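G2 share is only a proxy for re-replication; each gene was hit by three separate siRNAs, and active genes were retested.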 Raw values vary from plate to plate and are shown uncorrected. Entries without a mark were called inactive. Not given: the amount of reagent.
Gene,PubChem SID,G2 robust z-score,"G2 cells, % of GMNN control",raw share of cells in G2 (%)
IL23R,SID160758793,0.715,8,8.06
IL23R,SID160758794,-0.433,-0.077,4.67
IL23R,SID160758796,1.02,10.1,10.8
HHAT,SID160744208,1.23,11.6,8.6
HHAT,SID160744209,-0.505,-0.583,4.09
HHAT,SID160744210,1.48,13.4,12.3
CCDC88A,SID160744134,-0.451,-0.207,4.44
CCDC88A,SID160744135,-0.687,-1.87,3.37
CCDC88A,SID160744136,-0.145,1.95,3.76
CCDC88A,SID160772430,0.58,7.04,6.63
CCDC88A,SID160772431,0.523,6.65,5.46
CCDC88A,SID160772432,0.584,7.07,5.86
MINDY4B,SID160770074,-0.289,0.936,4.13
MINDY4B,SID160770075,2.29,19.1,10.3
MINDY4B,SID160770076,0.612,7.27,5.35
DCLK2,SID160760209,-0.215,1.45,6.04
DCLK2,SID160760210,0.685,7.79,8.02
DCLK2,SID160760211,-0.945,-3.68,2.5
KLHL8,SID160746282,1.12,10.8,8.16
KLHL8,SID160746284,0.0902,3.6,7.14
KLHL8,SID160746285,-0.803,-2.69,3.4
SLC6A3,SID160716858,-0.753,-2.33,3.19
SLC6A3,SID160716859,4.55,35,17.5
SLC6A3,SID160716860,-0.44,-0.127,4.5
AOPEP,SID160752912,0.908,9.35,8.05
AOPEP,SID160752913,-0.951,-3.73,1.83
AOPEP,SID160752914,0.462,6.22,4.9
CYP3A4,SID160751680,-0.809,-2.73,3.16
CYP3A4,SID160751691,0.913,9.39,8.42
CYP3A4,SID160751702,0.197,4.35,6.51
DSG2,SID160756690,-0.164,1.81,4.72
DSG2,SID160756701,0.434,6.02,7.19
DSG2,SID160756712,0.378,5.62,6.97

Entries above whose target name starts with K or k (3):
Gene,PubChem SID,G2 robust z-score,"G2 cells, % of GMNN control",raw share of cells in G2 (%)
KLHL8,SID160746282,1.12,10.8,8.16
KLHL8,SID160746284,0.0902,3.6,7.14
KLHL8,SID160746285,-0.803,-2.69,3.4

Additional results:
Gene,PubChem SID,G2 robust z-score,"G2 cells, % of GMNN control",raw share of cells in G2 (%)
BATF3,SID160724461,-0.863,-3.1,3.04
BATF3,SID160743734,-0.396,0.179,4.5
BATF3,SID160743735,1.17,11.2,11.3
EEF1B2P3,SID160769341,0.16,4.09,5.2
EEF1B2P3,SID160769342,-0.778,-2.51,2.37
EEF1B2P3,SID160769343,-0.303,0.833,3.39
XKR3,SID160758920,0.856,8.99,6.84
XKR3,SID160758921,-0.271,1.06,3.24
XKR3,SID160758923,-0.339,0.58,3.27
ZDHHC19,SID160730592,-0.451,-0.207,4.61
ZDHHC19,SID160757070,0.192,4.32,6.28
ZDHHC19,SID160757071,-0.253,1.18,6.52
GLDN,SID160764580,-0.245,1.24,4.41
GLDN,SID160764581,-0.0115,2.89,4.52
GLDN,SID160764582,-0.467,-0.315,4.06
OR4A15,SID160750716,-0.733,-2.19,3.54
OR4A15,SID160750717,2.51,20.6,13.3
OR4A15,SID160750718,-0.754,-2.34,1.74
PABPN1,SID160719639,1.11,10.8,10.2
PABPN1,SID160719640,-0.243,1.25,4.89
PABPN1,SID160719641,-0.0649,2.51,5.2
USP28,SID160746483,0.246,4.7,7.2
USP28,SID160746484,-1.13,-4.97,3.15
USP28,SID160746486,-0.185,1.66,4.53
SYMPK,SID160719695,-1.14,-5.08,2.8
SYMPK,SID160719696,0.754,8.28,7.34
SYMPK,SID160719697,2.78,22.5,15.1
PPP6R2,SID160722847,0.03,3.18,6.77
PPP6R2,SID160722849,-0.184,1.67,4.64
PPP6R2,SID160722850,-0.614,-1.35,2.91
RIIAD1,SID160732977,-0.568,-1.03,2.58
RIIAD1,SID160763353,1.23,11.6,8.66
RIIAD1,SID160763355,0.664,7.64,5.95
EXT2,SID160762593,-0.466,-0.313,5.12
EXT2,SID160762604,-0.383,0.275,5.37
EXT2,SID160762614,-0.0803,2.4,4.51
SIGLEC10,SID160753422,-0.0443,2.66,6.11
SIGLEC10,SID160753423,-0.93,-3.57,4.01
SIGLEC10,SID160753424,-0.251,1.2,4.93
NAGPA,SID160740241,-0.656,-1.65,3.22
NAGPA,SID160740242,2.23,18.7,11.6
NAGPA,SID160740243,-1.02,-4.23,1.92
RGS12,SID160715878,-0.47,-0.341,4.86
RGS12,SID160715879,-0.0965,2.29,5.55
RGS12,SID160715880,0.159,4.09,5.5
MRPL45,SID160752129,0.381,5.65,5.99
MRPL45,SID160752130,-0.867,-3.13,2.53
MRPL45,SID160752132,-0.645,-1.57,1.93
CIMAP1A,SID160754865,3.67,28.8,15.6
CIMAP1A,SID160754866,1.24,11.7,6.81
CIMAP1A,SID160754869,3.41,26.9,9.69
MRFAP1L1,SID160755113,-0.331,0.636,4.35
MRFAP1L1,SID160755114,-0.000354,2.96,4.21
MRFAP1L1,SID160755116,-0.811,-2.74,1.02
